Data on 28 targets can be found in the supplement of paper PMC12819154, “High-throughput peptide-centric local stability assay extends protein–ligand identification to membrane proteins, tissues and bacteria” (Nature Structural & Molecular Biology, 2025).

Amino acid sequences for entries named in this document (tags omitted). A change or cut given only in a name is not applied to a line headed by its entry.
UniProt Q01196, whole entry: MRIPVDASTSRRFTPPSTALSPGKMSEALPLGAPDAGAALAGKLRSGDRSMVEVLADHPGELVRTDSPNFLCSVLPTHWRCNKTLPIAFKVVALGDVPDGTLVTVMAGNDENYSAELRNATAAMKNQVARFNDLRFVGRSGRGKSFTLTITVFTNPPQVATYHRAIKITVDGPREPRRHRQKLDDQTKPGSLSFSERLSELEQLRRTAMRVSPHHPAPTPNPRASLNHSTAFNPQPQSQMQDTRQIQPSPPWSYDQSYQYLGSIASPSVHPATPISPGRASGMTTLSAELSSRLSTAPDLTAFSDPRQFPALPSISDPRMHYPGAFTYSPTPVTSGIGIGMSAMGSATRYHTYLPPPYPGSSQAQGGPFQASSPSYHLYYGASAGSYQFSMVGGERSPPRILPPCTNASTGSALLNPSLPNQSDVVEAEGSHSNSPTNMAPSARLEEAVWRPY
UniProt Q01518, whole entry: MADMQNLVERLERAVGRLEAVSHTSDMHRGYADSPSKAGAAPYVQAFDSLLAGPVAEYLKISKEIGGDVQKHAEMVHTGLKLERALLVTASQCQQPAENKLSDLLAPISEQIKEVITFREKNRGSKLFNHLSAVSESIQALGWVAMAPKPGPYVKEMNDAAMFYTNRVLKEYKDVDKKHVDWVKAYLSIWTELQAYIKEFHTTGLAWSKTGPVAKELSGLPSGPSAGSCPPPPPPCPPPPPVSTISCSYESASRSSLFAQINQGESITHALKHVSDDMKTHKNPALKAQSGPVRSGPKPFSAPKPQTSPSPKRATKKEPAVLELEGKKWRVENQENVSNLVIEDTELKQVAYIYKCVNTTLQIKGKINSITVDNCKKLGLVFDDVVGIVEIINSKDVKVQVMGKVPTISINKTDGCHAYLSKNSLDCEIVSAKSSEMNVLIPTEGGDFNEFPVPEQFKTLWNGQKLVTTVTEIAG
UniProt Q03135: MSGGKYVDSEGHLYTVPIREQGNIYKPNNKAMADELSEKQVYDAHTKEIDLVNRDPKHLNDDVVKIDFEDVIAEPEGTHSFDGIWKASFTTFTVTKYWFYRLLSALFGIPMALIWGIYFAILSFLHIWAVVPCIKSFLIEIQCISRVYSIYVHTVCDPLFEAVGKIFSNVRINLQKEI
UniProt P98179: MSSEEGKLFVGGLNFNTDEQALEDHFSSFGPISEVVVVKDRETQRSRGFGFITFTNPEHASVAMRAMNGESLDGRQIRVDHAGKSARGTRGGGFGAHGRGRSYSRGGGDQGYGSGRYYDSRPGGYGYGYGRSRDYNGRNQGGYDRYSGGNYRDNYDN
UniProt Q01658: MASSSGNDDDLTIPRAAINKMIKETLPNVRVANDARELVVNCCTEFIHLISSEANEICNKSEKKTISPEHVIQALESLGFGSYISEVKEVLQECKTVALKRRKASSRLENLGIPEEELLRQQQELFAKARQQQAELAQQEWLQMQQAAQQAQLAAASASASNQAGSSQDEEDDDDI
UniProt Q03164, whole entry: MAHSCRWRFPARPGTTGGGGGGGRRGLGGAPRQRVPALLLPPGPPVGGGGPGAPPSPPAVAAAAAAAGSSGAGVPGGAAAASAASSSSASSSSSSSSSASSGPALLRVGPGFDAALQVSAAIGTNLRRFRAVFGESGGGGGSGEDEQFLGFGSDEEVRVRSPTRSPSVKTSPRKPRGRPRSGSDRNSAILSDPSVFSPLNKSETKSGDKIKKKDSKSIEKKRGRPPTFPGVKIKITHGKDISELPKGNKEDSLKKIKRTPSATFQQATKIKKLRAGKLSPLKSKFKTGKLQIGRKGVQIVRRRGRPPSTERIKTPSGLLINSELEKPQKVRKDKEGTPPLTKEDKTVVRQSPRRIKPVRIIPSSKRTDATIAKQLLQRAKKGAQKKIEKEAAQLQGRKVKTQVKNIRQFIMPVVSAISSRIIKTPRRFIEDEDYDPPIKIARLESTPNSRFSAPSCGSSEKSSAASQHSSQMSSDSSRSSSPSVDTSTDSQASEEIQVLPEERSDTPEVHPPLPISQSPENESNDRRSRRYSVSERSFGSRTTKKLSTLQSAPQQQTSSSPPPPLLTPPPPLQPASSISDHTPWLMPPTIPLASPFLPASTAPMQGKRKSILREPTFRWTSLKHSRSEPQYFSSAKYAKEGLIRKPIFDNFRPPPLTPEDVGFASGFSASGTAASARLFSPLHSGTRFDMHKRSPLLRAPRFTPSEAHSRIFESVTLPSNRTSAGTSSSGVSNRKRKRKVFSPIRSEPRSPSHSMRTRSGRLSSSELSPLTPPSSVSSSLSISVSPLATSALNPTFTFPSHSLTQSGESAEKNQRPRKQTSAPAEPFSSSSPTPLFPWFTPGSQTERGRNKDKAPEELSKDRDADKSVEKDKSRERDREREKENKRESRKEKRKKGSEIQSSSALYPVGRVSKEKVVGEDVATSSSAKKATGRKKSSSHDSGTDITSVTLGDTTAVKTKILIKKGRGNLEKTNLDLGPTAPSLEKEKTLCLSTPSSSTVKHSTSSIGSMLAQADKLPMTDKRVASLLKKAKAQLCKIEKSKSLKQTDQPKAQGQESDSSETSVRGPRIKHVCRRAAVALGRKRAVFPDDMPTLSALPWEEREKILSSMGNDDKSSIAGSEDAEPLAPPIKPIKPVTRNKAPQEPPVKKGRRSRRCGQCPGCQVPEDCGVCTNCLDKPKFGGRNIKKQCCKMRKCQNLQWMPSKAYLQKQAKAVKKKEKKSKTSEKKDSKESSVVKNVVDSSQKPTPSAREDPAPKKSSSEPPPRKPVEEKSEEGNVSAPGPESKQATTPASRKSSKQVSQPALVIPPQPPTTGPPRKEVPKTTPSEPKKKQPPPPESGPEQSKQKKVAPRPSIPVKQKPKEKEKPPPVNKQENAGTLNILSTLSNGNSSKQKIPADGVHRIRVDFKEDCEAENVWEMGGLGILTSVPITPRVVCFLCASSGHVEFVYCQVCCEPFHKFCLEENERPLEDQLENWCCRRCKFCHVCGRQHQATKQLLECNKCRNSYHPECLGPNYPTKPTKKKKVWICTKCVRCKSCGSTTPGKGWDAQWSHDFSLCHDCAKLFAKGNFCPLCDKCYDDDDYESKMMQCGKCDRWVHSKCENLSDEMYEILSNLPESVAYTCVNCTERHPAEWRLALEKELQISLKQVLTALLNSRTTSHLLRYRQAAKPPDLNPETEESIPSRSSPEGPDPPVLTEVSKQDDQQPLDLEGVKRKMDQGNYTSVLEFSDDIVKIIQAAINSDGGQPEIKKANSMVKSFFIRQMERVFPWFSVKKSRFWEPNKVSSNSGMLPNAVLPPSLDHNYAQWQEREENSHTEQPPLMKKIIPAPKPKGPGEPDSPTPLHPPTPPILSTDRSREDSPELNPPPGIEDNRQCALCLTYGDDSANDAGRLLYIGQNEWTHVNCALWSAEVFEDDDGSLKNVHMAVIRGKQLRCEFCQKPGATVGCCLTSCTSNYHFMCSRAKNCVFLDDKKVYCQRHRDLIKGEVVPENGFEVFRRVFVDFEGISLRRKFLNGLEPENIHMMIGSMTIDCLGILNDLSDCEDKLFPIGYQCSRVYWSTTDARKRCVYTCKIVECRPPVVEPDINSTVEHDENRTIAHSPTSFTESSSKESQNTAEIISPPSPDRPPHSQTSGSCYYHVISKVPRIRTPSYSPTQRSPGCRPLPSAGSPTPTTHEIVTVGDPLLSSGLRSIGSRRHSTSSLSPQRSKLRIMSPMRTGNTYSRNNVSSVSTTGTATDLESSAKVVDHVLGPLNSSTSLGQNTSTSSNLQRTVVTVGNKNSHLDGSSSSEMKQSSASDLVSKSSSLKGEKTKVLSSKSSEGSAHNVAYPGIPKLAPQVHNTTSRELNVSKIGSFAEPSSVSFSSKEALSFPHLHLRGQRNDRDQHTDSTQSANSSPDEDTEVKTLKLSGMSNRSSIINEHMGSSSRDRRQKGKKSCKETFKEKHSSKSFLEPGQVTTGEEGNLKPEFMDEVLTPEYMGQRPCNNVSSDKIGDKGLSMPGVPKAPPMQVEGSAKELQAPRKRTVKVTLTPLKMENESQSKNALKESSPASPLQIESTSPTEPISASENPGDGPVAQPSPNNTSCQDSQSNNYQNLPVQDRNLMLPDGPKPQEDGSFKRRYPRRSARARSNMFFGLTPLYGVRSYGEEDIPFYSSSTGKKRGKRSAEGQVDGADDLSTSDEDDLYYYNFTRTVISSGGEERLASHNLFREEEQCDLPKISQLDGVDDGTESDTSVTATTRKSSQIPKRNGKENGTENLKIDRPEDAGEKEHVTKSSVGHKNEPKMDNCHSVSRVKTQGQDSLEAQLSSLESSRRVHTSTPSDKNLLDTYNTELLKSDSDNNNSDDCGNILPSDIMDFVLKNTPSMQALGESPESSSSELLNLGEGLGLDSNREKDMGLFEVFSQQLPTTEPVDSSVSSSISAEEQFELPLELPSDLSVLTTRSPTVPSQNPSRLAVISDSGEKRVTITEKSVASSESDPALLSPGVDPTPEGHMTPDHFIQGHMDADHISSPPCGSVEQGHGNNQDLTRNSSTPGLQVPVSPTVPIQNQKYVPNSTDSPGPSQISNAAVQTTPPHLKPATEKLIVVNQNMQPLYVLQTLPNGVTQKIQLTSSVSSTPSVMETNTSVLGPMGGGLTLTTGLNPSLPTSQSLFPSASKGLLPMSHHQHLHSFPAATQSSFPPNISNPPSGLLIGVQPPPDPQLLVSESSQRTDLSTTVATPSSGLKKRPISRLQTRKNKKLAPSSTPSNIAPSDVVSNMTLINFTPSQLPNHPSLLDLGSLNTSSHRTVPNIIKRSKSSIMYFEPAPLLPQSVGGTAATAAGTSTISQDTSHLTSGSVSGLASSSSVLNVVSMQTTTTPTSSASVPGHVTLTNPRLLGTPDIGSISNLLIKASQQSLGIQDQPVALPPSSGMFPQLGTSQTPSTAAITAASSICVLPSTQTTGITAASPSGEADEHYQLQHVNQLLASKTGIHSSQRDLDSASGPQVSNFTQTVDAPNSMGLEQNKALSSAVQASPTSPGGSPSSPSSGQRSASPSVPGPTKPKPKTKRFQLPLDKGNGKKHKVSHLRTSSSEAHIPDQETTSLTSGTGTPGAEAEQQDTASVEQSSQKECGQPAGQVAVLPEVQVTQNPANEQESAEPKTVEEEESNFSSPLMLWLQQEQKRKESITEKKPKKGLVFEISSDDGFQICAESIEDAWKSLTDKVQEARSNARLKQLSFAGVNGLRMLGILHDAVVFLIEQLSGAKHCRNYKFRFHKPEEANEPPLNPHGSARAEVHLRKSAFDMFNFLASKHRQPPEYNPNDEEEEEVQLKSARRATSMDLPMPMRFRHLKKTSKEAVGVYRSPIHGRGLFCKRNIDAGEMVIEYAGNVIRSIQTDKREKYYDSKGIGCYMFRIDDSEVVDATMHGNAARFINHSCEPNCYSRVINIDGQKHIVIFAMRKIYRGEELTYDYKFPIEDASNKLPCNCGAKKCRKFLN
UniProt Q0P651: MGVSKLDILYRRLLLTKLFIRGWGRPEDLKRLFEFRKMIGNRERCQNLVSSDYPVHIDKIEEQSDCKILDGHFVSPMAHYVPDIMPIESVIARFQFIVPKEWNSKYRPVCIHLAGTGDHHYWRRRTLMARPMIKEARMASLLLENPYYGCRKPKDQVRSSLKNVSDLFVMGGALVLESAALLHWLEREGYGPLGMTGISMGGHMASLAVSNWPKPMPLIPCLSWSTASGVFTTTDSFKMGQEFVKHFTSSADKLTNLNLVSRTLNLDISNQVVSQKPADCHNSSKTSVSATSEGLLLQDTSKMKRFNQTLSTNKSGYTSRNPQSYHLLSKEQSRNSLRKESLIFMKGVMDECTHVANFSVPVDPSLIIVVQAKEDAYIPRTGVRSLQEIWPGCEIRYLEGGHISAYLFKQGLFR
UniProt Q00688: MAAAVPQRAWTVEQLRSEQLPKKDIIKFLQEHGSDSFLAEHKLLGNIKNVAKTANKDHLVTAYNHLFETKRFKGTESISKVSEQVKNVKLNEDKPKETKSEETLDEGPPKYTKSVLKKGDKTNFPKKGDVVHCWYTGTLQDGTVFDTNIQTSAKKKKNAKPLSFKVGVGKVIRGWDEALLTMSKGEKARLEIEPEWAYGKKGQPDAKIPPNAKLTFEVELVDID
UniProt Q05048: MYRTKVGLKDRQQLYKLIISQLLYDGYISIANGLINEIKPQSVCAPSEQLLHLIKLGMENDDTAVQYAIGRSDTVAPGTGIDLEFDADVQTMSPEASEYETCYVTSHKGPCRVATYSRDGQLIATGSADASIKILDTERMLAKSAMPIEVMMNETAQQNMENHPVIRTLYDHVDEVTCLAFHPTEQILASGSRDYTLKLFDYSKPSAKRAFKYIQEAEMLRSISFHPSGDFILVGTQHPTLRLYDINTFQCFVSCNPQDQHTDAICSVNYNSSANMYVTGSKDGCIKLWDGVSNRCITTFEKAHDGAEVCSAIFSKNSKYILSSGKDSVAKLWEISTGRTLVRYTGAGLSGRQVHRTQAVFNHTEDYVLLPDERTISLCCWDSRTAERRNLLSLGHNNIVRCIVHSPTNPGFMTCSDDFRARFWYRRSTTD

This is one part of the list. Most entries show no effect beyond the scatter of the controls.

Compound in the experiment: Cc1nc(Nc2ncc(C(=O)Nc3c(C)cccc3Cl)s2)cc(N2CCN(CCO)CC2)n1 [dasatinib]
Nature of the experiment: log2 fold change of tryptic peptide abundance, ligand vs vehicle (limited proteolysis) (log2 ratio); higher = more trypsin-susceptible (destabilized). To be noted: ligand concentration: 5 uM; sample: K562 cleared lysate.
With “REEP5 (peptide sequence: AKETADAITK, peptide start residue: 163) (UniProt Q00765)”, the log2 fold change was -0.068.

With “RUNX1 (peptide sequence: QKLDDQTKPGSLSFSER, peptide start residue: 181) (UniProt Q01196)”, the log2 fold change came to 0.145.

As to “CAP1 (peptide sequence: EYKDVDKK, peptide start residue: 171) (UniProt Q01518)”, the log2 fold change worked out at 0.451.

As to “CALD1 (peptide sequence: AAAQERERR, peptide start residue: 301) (UniProt Q05682)”, the log2 fold change was -0.246.

In the case of “CAV1 (peptide sequence: YVDSEGHLYTVPIR, peptide start residue: 6) (UniProt Q03135)”, the log2 fold change is -0.0929.

Turning to “CDC20 (peptide sequence: LKVLYSQK, peptide start residue: 148) (UniProt Q12834)”, the log2 fold change is -0.236.

In the case of “RBM3 (peptide sequence: SRGFGFITFTNPEHASVAMR, peptide start residue: 46) (UniProt P98179)”, the log2 fold change is -0.553.

As to “FKBP4 (peptide sequence: FQIPPNAELKYELHLK, peptide start residue: 235) (UniProt Q02790)”, the log2 fold change amounted to 0.323.

As for “PFKP (peptide sequence: FLEHLSGAGK, peptide start residue: 16) (UniProt Q01813)”, the log2 fold change is -0.218.

Regarding “CPSF1 (peptide sequence: CAAMLVYGTR, peptide start residue: 149) (UniProt Q10570)”, the log2 fold change came to 0.295.

With “MGAT5 (peptide sequence: FNPPKSSK, peptide start residue: 539) (UniProt Q09328)”, the log2 fold change was 0.0325.

With “ZNF616 (peptide sequence: ATQGHLTFK, peptide start residue: 2) (UniProt Q08AN1)”, the log2 fold change worked out at 0.36.

In the case of “UniProt Q00341 (peptide sequence: ASVITQVFHVPLEER, peptide start residue: 73)”, the log2 fold change is -0.0818.

“DR1 (peptide sequence: EVLQECKTVALK, peptide start residue: 89) (UniProt Q01658)”: the log2 fold change is -0.292.

As for “NFX1 (peptide sequence: LKCEWSNR, peptide start residue: 188) (UniProt Q12986)”, the log2 fold change came out at 0.218.

On to “UniProt Q03164 (peptide sequence: NLMLPDGPKPQEDGSFK, peptide start residue: 2597)”, for which the log2 fold change is -0.383.

Regarding “POLE (peptide sequence: FLLAYKEER, peptide start residue: 1571) (UniProt Q07864)”, the log2 fold change is -0.358.

In the case of “ABHD18 (peptide sequence: YLEGGHISAYLFK, peptide start residue: 397) (UniProt Q0P651)”, the log2 fold change amounted to 0.478.

“UniProt Q00536 (peptide sequence: ISAEDAMKHPFFLSLGER, peptide start residue: 435)”: the log2 fold change worked out at 0.657.

Take “GRSF1 (peptide sequence: WVLGALLR, peptide start residue: 6) (UniProt Q12849)”: the log2 fold change was -0.545.

Take “GALK2 (peptide sequence: LIEFSPLR, peptide start residue: 204) (UniProt Q01415)”: the log2 fold change was 0.0747.

For “UniProt Q12980 (peptide sequence: GRHHLEEIMYNENTR, peptide start residue: 522)”, the log2 fold change was -0.63.

On to “DEUP1 (peptide sequence: ELFSVMQDQPNHEK, peptide start residue: 330) (UniProt Q05D60)”, for which the log2 fold change was -0.616.

In the case of “LMNB2 (peptide sequence: ISEKEEVTTR, peptide start residue: 78) (UniProt Q03252)”, the log2 fold change was -1.02.

Consider “VAC14 (peptide sequence: FMINLLKR, peptide start residue: 530) (UniProt Q08AM6)”, for which the log2 fold change was -0.353.

Consider “NUP160 (peptide sequence: SEDGEIVSTPR, peptide start residue: 949) (UniProt Q12769)”, for which the log2 fold change was -0.312.

For “FKBP3 (peptide sequence: ETKSEETLDEGPPKYTK, peptide start residue: 97) (UniProt Q00688)”, the log2 fold change is -0.625.

For “CSTF1 (peptide sequence: AHDGAEVCSAIFSK, peptide start residue: 303) (UniProt Q05048)”, the log2 fold change was -0.472.
